Test results reported in publication PMC10304470, “Characterization of the Antimicrobial Activities of Trichoplusia ni Cecropin A as a High-Potency Therapeutic against Colistin-Resistant Escherichia coli” (Pharmaceutics, 2023).
Peptide text beside a SMILES is read from it.

Test system: all bacterial strains
Experiment: Average MIC over all strains and relative selective index
Type: cell-based
Settings: higher = higher cell selectivity
Procedure: The antibacterial abilities of the peptides (T. ni cecropin, cecropin A, polymyxin B, colistin, and melittin) were determined using the broth dilution method as previously reported. The peptides dissolved at 10 mg/mL in deionized water were serially diluted from 64 μM to 0.5 μM in 96-well plates using Mueller–Hinton (MH) broth, and bacteria cultured to exponential growth were added at 2 × 10^5 cells/mL. The group of bacteria that grew untreated in the broth was set as the positive control, and the uninoculated broth as the negative control. Dissolved peptides are colorless and equal to the OD value of the medium only. After 16 h incubation at 37 °C, the absorbance at 600 nm was measured using a SpectraMAX microplate reader (Molecular Devices, San Jose, CA, USA).

| Structure (SMILES) | Relative selective index (HC10/GM) |
| --- | --- |
| CC[C@H](C)CCCCC(=O)N[C@@H](CCN)C(=O)N[C@H](C(=O)N[C@@H](CCN)C(=O)N[C@H]1CCNC(=O)[C@H]([C@@H](C)O)NC(=O)[C@H](CCN)NC(=O)[C@H](CCN)NC(=O)[C@H](CC(C)C)NC(=O)[C@@H](CC(C)C)NC(=O)[C@H](CCN)NC1=O)[C@@H](C)O [colistin] (HELM PEPTIDE1{[CC[C@H](C)CCCCC(=O)[*:2]].[Dab].T.[Dab].[Dab].[Dab].[dL].L.[Dab].[Dab].T}$PEPTIDE1,PEPTIDE1,5:R3-11:R2$$$V2.0; N-terminus assumed; bridges inferred) | 5.93 |
| CC[C@H](C)[C@H](NC(=O)CN)C(=O)NCC(=O)N[C@@H](C)C(=O)N[C@H](C(=O)N[C@@H](CC(C)C)C(=O)N[C@@H](CCCCN)C(=O)N[C@H](C(=O)N[C@@H](CC(C)C)C(=O)N[C@H](C(=O)N[C@H](C(=O)NCC(=O)N[C@@H](CC(C)C)C(=O)N1CCC[C@H]1C(=O)N[C@@H](C)C(=O)N[C@@H](CC(C)C)C(=O)N[C@H](C(=O)N[C@@H](CO)C(=O)N[C@@H](Cc1c[nH]c2ccccc12)C(=O)N[C@H](C(=O)N[C@@H](CCCCN)C(=O)N[C@@H](CCCNC(=N)N)C(=O)N[C@@H](CCCCN)C(=O)N[C@@H](CCCNC(=N)N)C(=O)N[C@@H](CCC(N)=O)C(=O)N[C@@H](CCC(N)=O)C(N)=O)[C@@H](C)CC)[C@@H](C)CC)[C@@H](C)O)[C@@H](C)O)C(C)C)C(C)C [melittin] | 0.22 |
| CC[C@H](C)CCCCC(=O)N[C@@H](CCN)C(=O)N[C@H](C(=O)N[C@@H](CCN)C(=O)N[C@H]1CCNC(=O)[C@H]([C@@H](C)O)NC(=O)[C@H](CCN)NC(=O)[C@H](CCN)NC(=O)[C@H](CC(C)C)NC(=O)[C@@H](Cc2ccccc2)NC(=O)[C@H](CCN)NC1=O)[C@@H](C)O [polymyxin B] (HELM PEPTIDE1{[CC[C@H](C)CCCCC(=O)[*:2]].[Dab].T.[Dab].[Dab].[Dab].[dF].L.[Dab].[Dab].T}$PEPTIDE1,PEPTIDE1,5:R3-11:R2$$$V2.0; N-terminus assumed; bridges inferred) | 11.19 |
